{"sequences": {"note": "Sequences of proteins named here, by UniProt entry; tags and fusion partners are left off.", "UniProt Q9VHP0": "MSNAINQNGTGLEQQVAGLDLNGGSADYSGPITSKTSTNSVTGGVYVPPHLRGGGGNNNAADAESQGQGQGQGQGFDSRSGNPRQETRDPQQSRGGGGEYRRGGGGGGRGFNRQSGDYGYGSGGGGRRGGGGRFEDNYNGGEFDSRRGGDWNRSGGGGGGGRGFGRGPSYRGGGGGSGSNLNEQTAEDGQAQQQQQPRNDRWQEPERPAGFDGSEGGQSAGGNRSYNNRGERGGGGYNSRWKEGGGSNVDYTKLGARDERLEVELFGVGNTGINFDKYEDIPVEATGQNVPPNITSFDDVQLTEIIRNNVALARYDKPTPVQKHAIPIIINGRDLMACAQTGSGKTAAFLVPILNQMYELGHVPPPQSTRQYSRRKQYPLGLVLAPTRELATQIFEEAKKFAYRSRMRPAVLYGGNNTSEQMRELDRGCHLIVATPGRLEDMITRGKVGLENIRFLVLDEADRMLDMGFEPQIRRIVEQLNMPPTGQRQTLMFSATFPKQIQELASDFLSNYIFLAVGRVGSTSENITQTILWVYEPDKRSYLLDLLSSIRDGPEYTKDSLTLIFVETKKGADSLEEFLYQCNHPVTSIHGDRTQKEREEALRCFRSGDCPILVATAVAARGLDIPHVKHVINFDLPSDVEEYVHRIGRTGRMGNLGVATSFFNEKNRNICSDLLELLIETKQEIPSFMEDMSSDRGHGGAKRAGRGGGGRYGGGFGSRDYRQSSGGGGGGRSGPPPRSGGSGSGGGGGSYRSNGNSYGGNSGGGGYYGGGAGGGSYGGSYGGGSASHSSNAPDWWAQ", "UniProt P21187": "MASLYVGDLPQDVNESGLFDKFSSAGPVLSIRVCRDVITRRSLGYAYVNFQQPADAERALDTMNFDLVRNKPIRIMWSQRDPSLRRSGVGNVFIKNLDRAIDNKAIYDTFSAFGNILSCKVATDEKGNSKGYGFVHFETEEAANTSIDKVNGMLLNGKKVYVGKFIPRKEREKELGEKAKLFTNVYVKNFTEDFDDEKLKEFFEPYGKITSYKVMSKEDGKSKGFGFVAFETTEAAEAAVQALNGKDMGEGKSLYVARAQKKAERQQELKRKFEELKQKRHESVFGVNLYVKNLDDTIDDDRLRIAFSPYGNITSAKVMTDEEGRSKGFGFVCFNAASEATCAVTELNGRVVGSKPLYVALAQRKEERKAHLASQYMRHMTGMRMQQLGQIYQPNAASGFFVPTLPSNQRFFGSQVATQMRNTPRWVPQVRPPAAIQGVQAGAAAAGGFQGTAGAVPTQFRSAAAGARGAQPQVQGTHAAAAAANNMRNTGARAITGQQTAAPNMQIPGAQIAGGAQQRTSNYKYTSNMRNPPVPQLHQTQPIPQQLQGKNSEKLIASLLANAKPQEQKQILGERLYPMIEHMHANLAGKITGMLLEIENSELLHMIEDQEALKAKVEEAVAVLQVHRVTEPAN", "UniProt P19109": "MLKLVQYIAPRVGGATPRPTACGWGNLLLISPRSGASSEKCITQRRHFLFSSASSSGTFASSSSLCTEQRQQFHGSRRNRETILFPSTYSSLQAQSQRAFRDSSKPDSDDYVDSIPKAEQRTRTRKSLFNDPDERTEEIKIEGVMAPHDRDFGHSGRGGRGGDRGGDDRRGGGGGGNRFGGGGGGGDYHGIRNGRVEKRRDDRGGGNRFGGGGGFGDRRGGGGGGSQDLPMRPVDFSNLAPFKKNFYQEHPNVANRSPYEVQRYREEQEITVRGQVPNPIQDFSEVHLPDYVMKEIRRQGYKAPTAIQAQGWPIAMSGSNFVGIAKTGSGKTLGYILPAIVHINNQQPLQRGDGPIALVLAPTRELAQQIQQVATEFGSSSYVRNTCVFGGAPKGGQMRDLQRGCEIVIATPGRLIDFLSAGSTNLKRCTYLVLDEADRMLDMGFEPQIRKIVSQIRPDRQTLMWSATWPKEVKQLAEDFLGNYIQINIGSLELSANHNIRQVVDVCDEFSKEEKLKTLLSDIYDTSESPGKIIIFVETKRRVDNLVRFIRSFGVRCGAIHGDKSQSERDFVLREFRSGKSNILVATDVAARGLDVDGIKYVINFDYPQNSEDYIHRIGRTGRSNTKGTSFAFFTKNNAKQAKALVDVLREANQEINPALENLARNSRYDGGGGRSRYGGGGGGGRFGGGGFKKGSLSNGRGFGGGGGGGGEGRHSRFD"}, "source": "paper PMC6827371", "molecules": {"B1": {"name": "Armi (protein, UniProt Q6J5K9 1-1188)", "chain": "MFTYVSKFFTNPDRNREDILESLDRENSFLDQKLMEEKMDQQLKANPNEINGVLSNKIAELTHGLSEMDVSKESSCTARKGVITSLDGDRGVIDKDVLFETKVAEDIILDLHVGCVVEYLTFTTGEAMRVVKVKSILEHSWEDTSQKEIEKAVDNLKNEKPTFFNTETRSVLGLISQRLASSIDVETEYGQLTVELDNIEMNFIPTNGDRVRLECNIQLDDGFVDKQGEILEVTKLFPTRIQEGEKCIVERVYVHMVVLGPETYILKTDLPTGTDLHLGDIVLADLIECQYSKFTRRAIKITPLEKNFGATKLTQQSSMGSSGSGKAVTVTGVNRFITAELWQKESVSLKLTNNLNRTLRLESITVCNDSESQLSVVSPLESKEISSGSEITVTFEIHTQFLGEAIEKYVLNFDLLKVRRVFTVIVCKTKEEVAEAEKRMIAAEALMAPGRNSQERSRFYANQVWCNKVDVIPGQQIVTKRRFVALRLGCFEVPKELRQICLTSERRQEMIKAIEQHYSFLTEPLSIKTYMHRFRLLLHLEEIECFVNFRNYDRDRAHFLRDGEFLTLQIENLAERRPSLVIGDTLRVINPWSDPDSQTTKSYEGIIHKVLFDRILLKFHSSFQEKYNGEDYRLEFYFSRYSFRKQHHAISKIVGVMGEDFLFPSKVTKRENPQLDVYMKDDDMYLYDSKLEWYNQSLNSIQKRAVFNILRGEAENIPYVLFGPPGSGKTMTLIETLLQLVRNLPGARILVGTPSNSSADLVTKRLIDSKALLQGDFIRLVSYNQVEKDLIPPEIMSYCATSDVGAVGSCEDKMMVTESGLKLRCQAKFIGTHRITISTCTTLGNFLQLGFPAGHFTHVLFDEAGQCTEPETMVPIVMLTKKRSQVVLSGDPRQLQSIVTSRIASKMGFSISFLERLLERSPYRKDLQRFPESSGYNPLVLTKLLYNYRALPSIMSIYSRLFYDDELIPVLSEKDSRESRLLSKLRCVFESEKDIPQAHGTFFYGIIGENRQNNDSPSWFNPQEVREVFLMTIALYRANVTADQIGIITPYQKQVKMLRSMFIGTDVVMPKIGSVEEFQGQERDIILISTVRSSEEILRMDARFSLGFVRCSKRLNVAVSRARAMMIIFGNPHLLAVDECWRQLILFCVKNNAYFGCDLPQMVINQKDEVPVCLETFVPSLNTTDDLN"}, "B2": {"name": "Nop60B (protein, UniProt O44081 1-508)", "chain": "MADVEVRKEKKKKKIKEEPLDGDDIGTLQKQGNFQIKPSSKIAELDTSQWPLLLKNFDKLNIRSNHYTPLAHGSSPLNRDIKEYMKTGFINLDKPSNPSSHEVVAWIKKILKVEKTGHSGTLDPKVTGCLIVCIDRATRLVKSQQSAGKEYVAIFKLHGAVESVAKVRQGLEKLRGALFQRPPLISAVKRQLRVRTVYDSKLLDYDETRNMGVFWVSCEAGSYIRTMCVHLGLVLGVGGQMLELRRVRSGIQSERDGMVTMHDVLDAMWLYENHKDESMLRRVIKPLEGLLVNHKRIIMKDSSVNAVCYGAKITLPGVLRYEDGIEIDQEIVICTTKGEAICLAIALMTTATMASCDHGVVAKIKRVIMERDTYPRKWGLGPKASAKKALIAAGKLDKFGRPNENTPKEWLTGYVDYNAKKPAAQEVSPTNGSSEPSKRKLSTSSVEETAAAAVSEETPSKDKKKKKKKHKGDEEAPEAAEEEAEPVEKEKKKKKKKDKDRDRDEAQE"}}, "target": "T1, GFP-Vas^DQAD (Drosophila melanogaster) (UniProt P09052)", "T1 sequence": "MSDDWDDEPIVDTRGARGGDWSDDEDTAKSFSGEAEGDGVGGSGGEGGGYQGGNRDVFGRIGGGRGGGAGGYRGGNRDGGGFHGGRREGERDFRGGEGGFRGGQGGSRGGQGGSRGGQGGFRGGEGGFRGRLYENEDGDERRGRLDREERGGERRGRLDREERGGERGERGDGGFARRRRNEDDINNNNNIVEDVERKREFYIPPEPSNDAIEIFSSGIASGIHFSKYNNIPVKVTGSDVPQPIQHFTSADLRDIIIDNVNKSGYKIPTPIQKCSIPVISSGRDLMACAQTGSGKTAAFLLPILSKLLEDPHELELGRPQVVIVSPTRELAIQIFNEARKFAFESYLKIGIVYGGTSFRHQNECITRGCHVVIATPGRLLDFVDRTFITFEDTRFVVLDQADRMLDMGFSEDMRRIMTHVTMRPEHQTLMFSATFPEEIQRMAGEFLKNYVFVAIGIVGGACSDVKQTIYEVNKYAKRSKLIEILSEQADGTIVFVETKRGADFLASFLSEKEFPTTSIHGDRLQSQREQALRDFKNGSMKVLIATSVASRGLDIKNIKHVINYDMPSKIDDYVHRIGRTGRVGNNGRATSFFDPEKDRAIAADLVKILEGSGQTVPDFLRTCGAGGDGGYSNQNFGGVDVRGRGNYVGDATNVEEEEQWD", "test": "co-IP; GFP-trap immunoprecipitation of GFP and GFP-Vas^DQAD from 30 mg ovarian protein lysate, as for the proteomic experiment; co-immunoprecipitated proteins detected by Western blotting", "note": "Results are given in words; binding and its absence hold for the method and conditions named. Binding seen in cells or lysates may run through a third protein. Some binding calls cover weakened binding; strength is not graded here. Sequences can lack the tags named with a protein.", "data": [{"molecule": "Bel (from UniProt Q9VHP0 1-798)", "values": [{"measurement": "binding", "value": "binds"}]}, {"molecule": "PABP (from UniProt P21187 1-634)", "values": [{"measurement": "binding", "value": "binds"}]}, {"molecule": "Rm62 (from UniProt P19109 1-719)", "values": [{"measurement": "binding", "value": "binds"}]}, {"molecule": "B1", "values": [{"measurement": "binding", "value": "binds"}]}, {"molecule": "B2", "values": [{"measurement": "binding", "value": "binds"}]}]}
